This note sets out measurements from article doi:10.1101/138099 (bioRxiv, 2017).

Results are given in words; binding and its absence hold for the method and conditions named. For part of these data: Binding seen in cells or lysates may run through a third protein.

In test [1] the target is BslA_(Δ172-181) produced in the B. subtilis bslA deletion strain (NRS2957) (Bacillus subtilis) (UniProt P71014). As to the kind of experiment: cross-linking.
The target is the same in test [2]. Put plainly: Western blot of a biofilm extract made with reducing agent. For orientation: Immunoblotting shows a protein as a band on a membrane.
In test [3] the target is BslA_(C178A,C180A), recombinant BslA_(42-181) variant (Bacillus subtilis) (UniProt P71014). Put plainly: SEC + other: non-reducing SDS-PAGE.
Test [4] concerns the target BslA_(Δ172-181), recombinant BslA_(42-181) with the C-terminal 10 amino acids removed (Bacillus subtilis) (UniProt P71014). Put plainly: SEC + other: non-reducing SDS-PAGE.
Test [5] has as its target BslA_(C178A,C180A) produced in the B. subtilis bslA deletion strain (NRS5179) (Bacillus subtilis) (UniProt P71014). As to the kind of experiment: cross-linking.
The target is the same in test [6]. As to the kind of experiment: Western blot of a biofilm extract made with reducing agent.
In test [7] the target is BslA_(C180A) produced in the B. subtilis bslA deletion strain (NRS5178) (Bacillus subtilis) (UniProt P71014). The test is described as above.
For test [8], the target named is BslA, wild type, from the B. subtilis NCIB3610 biofilm (Bacillus subtilis (endogenous in NCIB3610)) (UniProt P71014). The test is described as above.
Test [9] concerns the target BslA_(C178A) produced in the B. subtilis bslA deletion strain (NRS5177) (Bacillus subtilis) (UniProt P71014). The test is described as above.

B1: BslA_(Δ172-181) produced in the B. subtilis bslA deletion strain (NRS2957) (domain or fragment, UniProt P71014 29-171)
chain: AESTSTKAHTESTMRTQSTASLFATITGASKTEWSFSDIELTYRPNTLLSLGVMEFTLPSGFTANTKDTLNGNALRTTQILNNGKTVRVPLALDLLGAGEFKLKLNNKTLPAAGTYTFRAENKSLSIGNKFYAEASIDVAKRS
As to B1, the binding entry in [1] is “no binding”; in test [2], “no binding (tested: 10 mM DTT)”.

B2: BslA_(C178A,C180A), recombinant BslA_(42-181) variant (domain or fragment, UniProt P71014 42-181)
chain: MRTQSTASLFATITGASKTEWSFSDIELTYRPNTLLSLGVMEFTLPSGFTANTKDTLNGNALRTTQILNNGKTVRVPLALDLLGAGEFKLKLNNKTLPAAGTYTFRAENKSLSIGNKFYAEASIDVAKRSTPPTQPAGAN
For the molecule B2, the binding result in test [3] is on record as “no binding”.

B3: BslA_(Δ172-181), recombinant BslA_(42-181) with the C-terminal 10 amino acids removed (domain or fragment, UniProt P71014 42-171)
chain: MRTQSTASLFATITGASKTEWSFSDIELTYRPNTLLSLGVMEFTLPSGFTANTKDTLNGNALRTTQILNNGKTVRVPLALDLLGAGEFKLKLNNKTLPAAGTYTFRAENKSLSIGNKFYAEASIDVAKRS
With B3, the binding entry in [4] is on record as “no binding”.

B4: BslA_(C178A,C180A) produced in the B. subtilis bslA deletion strain (NRS5179) (protein, UniProt P71014 29-181)
chain: AESTSTKAHTESTMRTQSTASLFATITGASKTEWSFSDIELTYRPNTLLSLGVMEFTLPSGFTANTKDTLNGNALRTTQILNNGKTVRVPLALDLLGAGEFKLKLNNKTLPAAGTYTFRAENKSLSIGNKFYAEASIDVAKRSTPPTQPAGAN
For the molecule B4, the binding entry in [5] was “no binding”; in [6] it was “no binding (tested: 10 mM DTT)”.

B5: BslA_(C180A) produced in the B. subtilis bslA deletion strain (NRS5178) (natural protein, Bacillus subtilis, UniProt P71014 29-181, looked up)
chain: AESTSTKAHTESTMRTQSTASLFATITGASKTEWSFSDIELTYRPNTLLSLGVMEFTLPSGFTANTKDTLNGNALRTTQILNNGKTVRVPLALDLLGAGEFKLKLNNKTLPAAGTYTFRAENKSLSIGNKFYAEASIDVAKRSTPPTQPCGAN
For B5, the binding result in [7] is “no binding (condition: with 10 mM DTT)”.

B6: BslA, wild type, from the B. subtilis NCIB3610 biofilm (natural protein, UniProt P71014 29-181, looked up)
chain: AESTSTKAHTESTMRTQSTASLFATITGASKTEWSFSDIELTYRPNTLLSLGVMEFTLPSGFTANTKDTLNGNALRTTQILNNGKTVRVPLALDLLGAGEFKLKLNNKTLPAAGTYTFRAENKSLSIGNKFYAEASIDVAKRSTPPTQPCGCN
With B6, the binding result in test [8] is “no binding (condition: with 10 mM DTT)”.

B7: BslA_(C178A) produced in the B. subtilis bslA deletion strain (NRS5177) (natural protein, Bacillus subtilis, UniProt P71014 29-181, looked up)
chain: AESTSTKAHTESTMRTQSTASLFATITGASKTEWSFSDIELTYRPNTLLSLGVMEFTLPSGFTANTKDTLNGNALRTTQILNNGKTVRVPLALDLLGAGEFKLKLNNKTLPAAGTYTFRAENKSLSIGNKFYAEASIDVAKRSTPPTQPAGCN
On to B7, for which, in test [9], the binding result is reported as “no binding (condition: with 10 mM DTT)”.
